Experimental data taken from article PMC10936776, “Structural and functional characterization of AfsR, an SARP family transcriptional activator of antibiotic biosynthesis in Streptomyces” (PLOS Biology, 2024).
For part of these data: Weaker means in comparison with the reference protein, sequence or condition of that experiment. Protein sequences can lack the tags named with them. For part of these data: The exact form of at least one protein or probe is not confirmed. For part of these data: At least one verdict rests on a figure or table, not on a statement of the authors.

Tests used:
[1] = molecular target: T1, AfsR SARP domain (Streptomyces coelicolor M145) (UniProt P25941); assay: fluorescence polarization; conditions: 5 mM Mg2+, poly(dI-dC); FP: 20 mM HEPES pH 7.5, 100 mM NaCl, 5 mM MgCl2, 2 mM DTT, 5% glycerol, 0.1 ug/ml poly(dI-dC), 10 nM DNA, 30 C, 20 min; recombinant protein; residues 1-270; protein details: pET28a His tag (Ni-NTA); label: 5'-FAM
T1 sequence (looked up): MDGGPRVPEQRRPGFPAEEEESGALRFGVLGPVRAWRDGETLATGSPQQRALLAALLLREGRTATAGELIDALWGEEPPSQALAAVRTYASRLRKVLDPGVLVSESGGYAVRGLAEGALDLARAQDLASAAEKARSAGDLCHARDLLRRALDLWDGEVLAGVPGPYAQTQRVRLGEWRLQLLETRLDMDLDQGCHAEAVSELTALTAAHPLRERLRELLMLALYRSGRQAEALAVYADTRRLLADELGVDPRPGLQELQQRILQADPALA

[2] = molecular target: T2, AfsR, dephosphorylated (Streptomyces coelicolor M145) (UniProt P25941); assay: fluorescence polarization; conditions: no ATP; FP: 20 mM HEPES pH 7.5, 100 mM NaCl, 5 mM MgCl2, 2 mM DTT, 5% glycerol, 0.1 ug/ml poly(dI-dC), 10 nM DNA, 30 C, 20 min; recombinant protein; residues 1-993; protein details: pET28a His tag (Ni-NTA); label: 5'-FAM
T2 sequence (looked up): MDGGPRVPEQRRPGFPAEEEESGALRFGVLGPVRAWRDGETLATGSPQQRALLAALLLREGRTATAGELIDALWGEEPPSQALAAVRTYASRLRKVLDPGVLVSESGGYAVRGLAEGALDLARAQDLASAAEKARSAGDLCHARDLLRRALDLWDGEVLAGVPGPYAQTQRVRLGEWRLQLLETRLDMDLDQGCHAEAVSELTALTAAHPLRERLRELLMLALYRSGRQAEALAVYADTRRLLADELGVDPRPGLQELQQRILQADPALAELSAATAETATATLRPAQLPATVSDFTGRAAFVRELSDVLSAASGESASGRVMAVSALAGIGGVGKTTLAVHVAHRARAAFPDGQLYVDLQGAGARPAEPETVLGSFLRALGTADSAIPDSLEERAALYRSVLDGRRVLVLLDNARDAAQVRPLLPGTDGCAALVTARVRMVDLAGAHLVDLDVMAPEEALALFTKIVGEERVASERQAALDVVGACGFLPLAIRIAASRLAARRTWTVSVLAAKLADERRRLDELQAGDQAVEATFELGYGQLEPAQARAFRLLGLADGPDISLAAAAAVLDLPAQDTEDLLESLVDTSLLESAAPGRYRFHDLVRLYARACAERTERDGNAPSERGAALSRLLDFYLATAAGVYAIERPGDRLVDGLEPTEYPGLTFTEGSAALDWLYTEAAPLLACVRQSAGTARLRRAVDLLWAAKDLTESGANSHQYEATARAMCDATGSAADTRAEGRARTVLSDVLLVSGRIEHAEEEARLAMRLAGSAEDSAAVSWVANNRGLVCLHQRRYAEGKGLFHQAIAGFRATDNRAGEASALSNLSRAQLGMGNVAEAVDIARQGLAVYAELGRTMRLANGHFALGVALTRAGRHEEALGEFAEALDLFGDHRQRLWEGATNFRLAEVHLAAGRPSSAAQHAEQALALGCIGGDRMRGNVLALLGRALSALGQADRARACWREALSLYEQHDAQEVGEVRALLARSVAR

| Sequence | binding result [1] | binding result [2] |
| --- | --- | --- |
| GGAGATGGACTCGTTCGTTTATCTCCCCCTGG (double strand) [afs box M1 (upstream DR mutated)] | binds more weakly |  |
| CGGAGCGTTCAGCGTTCGTTTATCTCCCCCTG (double strand) [afs box (-45 to -14)] |  | binds |
| GGAGCGTTCAGCGTTATGGGCGCTCCCCCTGG (double strand) [afs box M2 (downstream DR mutated)] | binds more weakly |  |
